# Assay results from the supplement of paper PMC3334620.
# The full ranking holds about 33,000 sequences; the median of “E-score (-0.5 to 0.5)” is about -0.016, and the highest 2% start at about 0.3. The list shows a part of the results.
# Molecular target: T1, Yer184c (UniProt P39961)
# T1 sequence: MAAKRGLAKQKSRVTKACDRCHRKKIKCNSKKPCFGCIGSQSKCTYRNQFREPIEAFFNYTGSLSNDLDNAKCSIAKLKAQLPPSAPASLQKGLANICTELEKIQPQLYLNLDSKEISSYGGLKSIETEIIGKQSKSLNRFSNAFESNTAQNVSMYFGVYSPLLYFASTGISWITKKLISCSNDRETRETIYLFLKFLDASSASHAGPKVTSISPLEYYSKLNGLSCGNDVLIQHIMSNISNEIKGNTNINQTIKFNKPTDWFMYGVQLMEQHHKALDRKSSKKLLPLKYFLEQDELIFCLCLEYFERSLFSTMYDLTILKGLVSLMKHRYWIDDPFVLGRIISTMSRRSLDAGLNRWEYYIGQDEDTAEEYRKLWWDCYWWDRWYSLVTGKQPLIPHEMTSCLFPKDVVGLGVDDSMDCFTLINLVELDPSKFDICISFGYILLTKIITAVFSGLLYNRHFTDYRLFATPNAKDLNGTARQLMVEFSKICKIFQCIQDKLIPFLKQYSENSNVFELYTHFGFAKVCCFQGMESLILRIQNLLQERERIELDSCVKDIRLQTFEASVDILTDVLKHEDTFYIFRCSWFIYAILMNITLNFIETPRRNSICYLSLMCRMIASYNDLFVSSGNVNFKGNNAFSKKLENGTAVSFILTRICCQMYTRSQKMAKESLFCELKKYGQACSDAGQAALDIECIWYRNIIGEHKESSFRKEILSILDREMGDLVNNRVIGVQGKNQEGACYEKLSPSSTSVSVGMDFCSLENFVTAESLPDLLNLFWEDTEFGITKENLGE
# Assay: PBM E-score (8-mer binding enrichment) (E-score (-0.5 to 0.5)); higher = stronger / more preferred TF binding
# Details: protein concentration: 100 nM; construct: GST-full length
# Method in brief: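 Each ungapped eight-base word and its reverse complement, pooled, received an E-score from the Universal PBM Analysis Suite. Underlying scans, normalised with masliner, recorded fluorescent anti-GST bound to GST-tagged yeast transcription factors. These were applied at about 100-200 nM to universal all-10-mer Agilent arrays double-stranded by primer extension.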
row,Sequence,PBM E-score
1,ATCTGTCA,0.0815
2,AACCGAAT,0.199
3,CTCGATTC,0.0805
4,GCAAGTAA,-0.0502
5,TCTGAACA,-0.0173
6,CCAATAGG,-0.229
7,ATGGTCTA,-0.239
8,CTATTAGA,-0.0899
9,GAAACGTC,-0.0761
10,ACTAGTCA,-0.164
11,CTCGCATA,-0.152
12,AAGGGTTG,-0.0806
13,AAATATCA,0.124
14,AAGTTACC,0.281
15,CCGGCCCA,0.181
16,CTACGAAC,-0.0618
17,CCCGATAC,0.0783
18,GTGCCAAA,-0.00899
19,ATACAGAT,0.111
20,CCGCATTA,0.0562
21,ATACCCTC,0.0252
22,AGTTATGA,0.108
23,ATCGAGTA,-0.0791
24,CTTTGTGC,0.0691
25,TCCACTCA,-0.0411

row,Sequence,PBM E-score
1,GTGTGCGA,-0.126
2,CGGTCGAC,0.223
3,GTTGAGGA,0.0739
4,AAAATAAA,0.226
5,ATTCAAAA,0.258
6,TGATGCCA,-0.0559
7,CGGTTGTA,-0.0768
8,CGGCGAAC,0.263
9,AGAGTGAT,-0.149
10,CTTTAACA,0.197
11,GTTAATTA,0.257
12,ATGTTCTC,0.0489
13,CTACTTTC,0.0781
14,AGCCGGGA,0.311
15,ATGTCAGC,-0.045
16,ACGGTTCT,-0.014
17,AACGGACG,0.159
18,CGCGGCGA,0.253
19,AAGCTCCG,0.339
20,AGCGAAGA,-0.105
21,CCCGTTAC,-0.0585
22,TCGTCAAA,0.138
23,AAACACAG,0.132
24,CTACGGTA,0.0439
25,ACGAACTA,0.157

row,Sequence,PBM E-score
1,CTCTTCAA,-0.129
2,AAACTGAC,-0.0343
3,GATTTTCC,0.132
4,GTACTGTA,-0.14
5,ATGGCGAC,-0.117
6,TCGGTCCA,0.0731
7,ACTAATAG,0.108
8,CGTACGAA,0.149
9,ATCCCCTC,-0.241
10,CTTGTTAA,0.0825
11,AACTGCCT,-0.00368
12,AAACTGTC,-0.133
13,CGGGGTGC,0.0137
14,CCTGCTTA,-0.0649
15,GAAGAAGA,0.165
16,CTGCTGTA,0.0812
17,GAGATGTA,0.0908
18,AAACTGCT,-0.116
19,GTGACTCA,-0.182
20,GCAGTCAC,-0.186
21,ACCACCTG,-0.116
22,CAAACCGC,0.0411
23,ACGCGCAA,0.156
24,AATTGTTG,-0.0931
25,CACTCATA,0.0205

row,Sequence,PBM E-score
1,CGATGCCA,-0.15
2,ACAGATTG,-0.133
3,GATAAAGA,-0.0721
4,AAGGGCTC,-0.307
5,AGCATTTG,-0.07
6,AAAGAAGG,-0.0521
7,AGTACAGG,0.015
8,GCGAAAGC,-0.056
9,ATAATGTC,0.0688
10,CCGTAACA,0.148
11,CGGCTGGC,0.151
12,ACTTCCAA,-0.0697
13,ATGCACAT,-0.0925
14,ACACGACG,-0.0478
15,ATTTGTCA,0.1
16,ATGTAAGA,0.152
17,ACTAGAAT,-0.127
18,AACTATGT,-0.00664
19,AATCAAGT,-0.0331
20,CCGGGGAG,0.0832
21,ACCAGGGA,-0.3
22,GTAGGCAC,-0.196
23,CTACACAG,-0.185
24,ACTTTCGG,0.16
25,AACGATTC,0.106

# Some of the entries above in a different format:
row	Sequence	PBM E-score
14	CCTGCTTA	-0.0649
15	GAAGAAGA	0.165
16	CTGCTGTA	0.0812
17	GAGATGTA	0.0908
18	AAACTGCT	-0.116
19	GTGACTCA	-0.182
20	GCAGTCAC	-0.186
21	ACCACCTG	-0.116
22	CAAACCGC	0.0411
23	ACGCGCAA	0.156
24	AATTGTTG	-0.0931
25	CACTCATA	0.0205
1	CGATGCCA	-0.15
2	ACAGATTG	-0.133
3	GATAAAGA	-0.0721
4	AAGGGCTC	-0.307
5	AGCATTTG	-0.07
6	AAAGAAGG	-0.0521
7	AGTACAGG	0.015
8	GCGAAAGC	-0.056
9	ATAATGTC	0.0688
10	CCGTAACA	0.148
11	CGGCTGGC	0.151
12	ACTTCCAA	-0.0697
13	ATGCACAT	-0.0925
14	ACACGACG	-0.0478
15	ATTTGTCA	0.1
16	ATGTAAGA	0.152
17	ACTAGAAT	-0.127
18	AACTATGT	-0.00664
19	AATCAAGT	-0.0331
20	CCGGGGAG	0.0832
21	ACCAGGGA	-0.3
22	GTAGGCAC	-0.196
23	CTACACAG	-0.185

# Following part

row,Sequence,PBM E-score
1,CAAGTCGG,0.0537
2,AATTTGGA,-0.0799
3,ACCCTTCG,-0.123
4,ACTTCAAA,0.0515
5,CAAAGTAA,0.0677
6,ACCAATGC,-0.0435
7,CCATCCGG,0.143
8,AGAATTGG,-0.012
9,CGATATAA,0.0483
10,ACCGAGTG,-0.068
11,CGCGGTAC,0.139
12,TACATCCA,0.0241
13,TCATAAGA,0.1
14,CCTGGGCC,-0.131
15,AGGCTGCG,-0.155
16,TAATTTCA,0.244
17,CCAGTAAA,-0.0809
18,AGTATTCA,0.00042
19,TCATCCCA,-0.181
20,GACTCTAA,-0.104
21,CCGGATAG,0.342
22,ACCAAAAG,0.115
23,AATGCAGC,-0.26
24,GGGGCATA,-0.238
25,CGAAAAAG,0.17

row,Sequence,PBM E-score
1,ACGCCCGA,0.056
2,ACTTCCCA,-0.0981
3,GCATCAAC,0.0173
4,AAAATTTA,0.228
5,CCTGTAAG,-0.186
6,CGACCGGA,0.253
7,GTGGAAGA,0.131
8,TATTGAGA,0.0985
9,ACCGGCGG,0.182
10,CCTTTAAG,0.00753
11,CTAGGTGC,-0.232
12,ACAGAGAA,0.0725
13,CGGCCGAC,0.381
14,ACTGGCGG,-0.0142
15,GTAAGTCA,-0.116
16,GAATTGGA,-0.0106
17,CGTTGCCC,-0.166
18,CCCCTAAG,-0.302
19,CACGTAGC,-0.25
20,CATGAACC,0.0505
21,TGACTCCA,-0.254
22,TTAATAAA,0.328
23,CTAGGAGA,-0.0687
24,CACGTTCG,-0.203
25,AACCGCGT,0.168

row,Sequence,PBM E-score
1,ATACAAAC,0.221
2,GTACTTAA,-0.13
3,ATAGGCCG,0.0354
4,CACAGGTC,-0.235
5,AGCCTGCC,-0.118
6,AACGAACA,0.254
7,GGCGCCGA,0.337
8,CAACGTCA,-0.0999
9,TCCAAAAA,0.103
10,GAGACCGA,0.152
11,GTAATGGA,0.181
12,GACCATGC,-0.0135
13,AAGACTTC,-0.188
14,CCGATACG,0.00831
15,ACTCCTGG,-0.289
16,CCGTCAGG,-0.0428
17,AGTGGTGC,-0.07
18,AGGTGAGC,-0.195
19,ACCCCCTG,-0.357
20,GCCTGACC,-0.101
21,GCCTAGGC,-0.197
22,ACGTCTAG,0.0664
